Test results from US20090053203A1.
No constants are given. Whether binding was seen depends on the method and setting. Some entries that bind do so weakly or less than the wild type.

By UniProt entry, the sequences of proteins in these tests, tags left out. Residues count along the entry.
UniProt P17301, residues 30-1181: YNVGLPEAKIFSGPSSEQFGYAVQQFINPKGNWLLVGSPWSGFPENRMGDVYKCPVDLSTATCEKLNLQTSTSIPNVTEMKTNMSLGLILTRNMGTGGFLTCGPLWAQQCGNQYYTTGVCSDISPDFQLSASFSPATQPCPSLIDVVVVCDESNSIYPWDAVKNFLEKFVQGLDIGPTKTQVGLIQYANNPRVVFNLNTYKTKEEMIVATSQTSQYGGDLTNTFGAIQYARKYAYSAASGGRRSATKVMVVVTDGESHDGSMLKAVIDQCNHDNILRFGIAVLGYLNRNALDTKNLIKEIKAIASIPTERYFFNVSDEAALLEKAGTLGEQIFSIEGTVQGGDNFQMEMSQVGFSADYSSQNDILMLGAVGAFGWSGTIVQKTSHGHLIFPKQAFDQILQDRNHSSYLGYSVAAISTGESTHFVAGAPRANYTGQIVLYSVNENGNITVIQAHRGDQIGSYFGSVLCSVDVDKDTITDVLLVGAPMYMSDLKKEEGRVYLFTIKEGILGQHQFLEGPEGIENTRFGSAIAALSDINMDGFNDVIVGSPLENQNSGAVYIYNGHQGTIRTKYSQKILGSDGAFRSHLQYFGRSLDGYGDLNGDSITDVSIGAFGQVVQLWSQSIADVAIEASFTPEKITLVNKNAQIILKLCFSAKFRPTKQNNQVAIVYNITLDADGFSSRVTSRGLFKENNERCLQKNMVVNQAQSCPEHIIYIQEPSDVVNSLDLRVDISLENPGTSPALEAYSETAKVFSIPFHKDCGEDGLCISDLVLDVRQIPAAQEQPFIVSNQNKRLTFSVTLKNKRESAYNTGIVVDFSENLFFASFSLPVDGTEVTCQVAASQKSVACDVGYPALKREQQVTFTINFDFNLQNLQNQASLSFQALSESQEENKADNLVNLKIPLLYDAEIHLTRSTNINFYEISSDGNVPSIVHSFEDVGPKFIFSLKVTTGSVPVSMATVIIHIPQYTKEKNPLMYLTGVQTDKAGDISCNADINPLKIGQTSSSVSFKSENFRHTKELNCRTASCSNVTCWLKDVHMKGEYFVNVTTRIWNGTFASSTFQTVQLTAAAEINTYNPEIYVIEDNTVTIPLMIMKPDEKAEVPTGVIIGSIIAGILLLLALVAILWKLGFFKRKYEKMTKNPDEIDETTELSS
UniProt P08648, residues 42-1049: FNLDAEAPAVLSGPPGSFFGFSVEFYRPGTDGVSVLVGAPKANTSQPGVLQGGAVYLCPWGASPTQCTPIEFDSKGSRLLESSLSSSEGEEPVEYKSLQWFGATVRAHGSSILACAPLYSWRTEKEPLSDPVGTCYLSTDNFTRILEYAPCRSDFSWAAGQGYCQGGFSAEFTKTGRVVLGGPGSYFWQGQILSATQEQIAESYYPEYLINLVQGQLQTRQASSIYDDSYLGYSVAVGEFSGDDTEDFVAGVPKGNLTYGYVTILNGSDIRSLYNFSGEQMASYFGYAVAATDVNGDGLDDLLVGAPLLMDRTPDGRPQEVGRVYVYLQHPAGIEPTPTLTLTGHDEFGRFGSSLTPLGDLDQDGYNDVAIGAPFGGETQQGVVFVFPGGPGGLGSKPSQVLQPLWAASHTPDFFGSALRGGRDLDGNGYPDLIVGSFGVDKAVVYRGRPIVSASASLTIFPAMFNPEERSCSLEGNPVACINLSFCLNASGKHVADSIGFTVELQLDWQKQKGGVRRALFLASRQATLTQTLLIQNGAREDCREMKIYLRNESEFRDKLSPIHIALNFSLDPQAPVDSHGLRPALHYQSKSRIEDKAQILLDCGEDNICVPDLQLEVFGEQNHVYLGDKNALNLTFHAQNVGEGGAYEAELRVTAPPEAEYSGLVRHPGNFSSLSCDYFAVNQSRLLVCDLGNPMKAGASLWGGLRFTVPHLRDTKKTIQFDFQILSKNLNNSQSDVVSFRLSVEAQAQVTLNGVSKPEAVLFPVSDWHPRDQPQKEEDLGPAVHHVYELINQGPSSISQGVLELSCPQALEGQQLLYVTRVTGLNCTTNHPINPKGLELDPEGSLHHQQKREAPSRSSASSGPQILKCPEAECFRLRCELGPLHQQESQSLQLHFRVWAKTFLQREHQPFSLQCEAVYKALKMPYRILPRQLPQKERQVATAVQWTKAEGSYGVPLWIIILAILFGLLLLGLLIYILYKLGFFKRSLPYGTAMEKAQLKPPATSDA
UniProt P06756, residues 31-1048: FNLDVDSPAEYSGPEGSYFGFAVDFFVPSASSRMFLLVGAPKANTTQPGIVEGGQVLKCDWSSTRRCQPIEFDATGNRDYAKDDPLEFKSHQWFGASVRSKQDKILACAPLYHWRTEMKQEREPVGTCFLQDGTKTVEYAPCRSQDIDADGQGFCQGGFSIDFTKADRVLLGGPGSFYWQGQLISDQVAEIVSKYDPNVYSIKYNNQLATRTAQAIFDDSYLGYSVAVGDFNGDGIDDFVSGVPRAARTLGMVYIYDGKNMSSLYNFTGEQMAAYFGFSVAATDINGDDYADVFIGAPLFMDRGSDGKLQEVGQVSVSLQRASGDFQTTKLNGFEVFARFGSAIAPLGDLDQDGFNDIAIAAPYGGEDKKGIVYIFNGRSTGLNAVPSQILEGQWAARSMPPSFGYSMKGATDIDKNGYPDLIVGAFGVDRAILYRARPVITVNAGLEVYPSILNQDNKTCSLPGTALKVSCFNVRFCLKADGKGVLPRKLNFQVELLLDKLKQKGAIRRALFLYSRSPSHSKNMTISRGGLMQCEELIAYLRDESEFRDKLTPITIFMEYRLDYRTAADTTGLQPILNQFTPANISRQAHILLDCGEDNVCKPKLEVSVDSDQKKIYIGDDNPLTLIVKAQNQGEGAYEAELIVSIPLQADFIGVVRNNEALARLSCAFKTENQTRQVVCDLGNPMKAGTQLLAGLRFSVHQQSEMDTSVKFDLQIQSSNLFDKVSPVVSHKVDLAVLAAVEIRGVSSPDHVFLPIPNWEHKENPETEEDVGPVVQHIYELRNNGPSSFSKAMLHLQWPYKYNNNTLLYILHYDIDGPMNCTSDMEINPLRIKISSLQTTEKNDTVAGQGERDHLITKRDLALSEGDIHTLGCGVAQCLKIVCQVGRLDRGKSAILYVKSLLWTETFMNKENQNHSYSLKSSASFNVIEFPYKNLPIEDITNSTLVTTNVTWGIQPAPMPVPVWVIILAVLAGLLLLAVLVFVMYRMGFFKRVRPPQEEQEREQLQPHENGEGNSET
UniProt P05556: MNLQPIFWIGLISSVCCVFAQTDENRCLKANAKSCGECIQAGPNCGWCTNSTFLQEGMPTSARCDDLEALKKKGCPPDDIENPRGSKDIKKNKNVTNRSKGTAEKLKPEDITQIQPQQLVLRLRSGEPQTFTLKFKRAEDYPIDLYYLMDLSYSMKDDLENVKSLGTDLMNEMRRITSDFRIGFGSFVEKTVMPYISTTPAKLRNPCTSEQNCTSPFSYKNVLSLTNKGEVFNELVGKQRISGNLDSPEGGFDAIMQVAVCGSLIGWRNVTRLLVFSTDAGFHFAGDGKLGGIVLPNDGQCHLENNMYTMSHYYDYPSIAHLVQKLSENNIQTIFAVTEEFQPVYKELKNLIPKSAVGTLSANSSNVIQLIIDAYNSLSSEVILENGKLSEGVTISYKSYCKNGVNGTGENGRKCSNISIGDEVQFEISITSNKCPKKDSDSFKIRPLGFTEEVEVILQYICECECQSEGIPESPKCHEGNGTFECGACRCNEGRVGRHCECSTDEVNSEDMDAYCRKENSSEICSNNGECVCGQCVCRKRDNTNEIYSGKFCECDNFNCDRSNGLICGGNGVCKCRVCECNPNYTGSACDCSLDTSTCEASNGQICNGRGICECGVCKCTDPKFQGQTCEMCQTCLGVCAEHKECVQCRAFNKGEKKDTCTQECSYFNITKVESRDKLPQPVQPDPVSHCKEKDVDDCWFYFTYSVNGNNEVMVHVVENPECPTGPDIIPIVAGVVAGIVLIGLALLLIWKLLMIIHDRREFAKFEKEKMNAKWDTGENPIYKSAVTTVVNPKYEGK
UniProt P05106, residues 27-788: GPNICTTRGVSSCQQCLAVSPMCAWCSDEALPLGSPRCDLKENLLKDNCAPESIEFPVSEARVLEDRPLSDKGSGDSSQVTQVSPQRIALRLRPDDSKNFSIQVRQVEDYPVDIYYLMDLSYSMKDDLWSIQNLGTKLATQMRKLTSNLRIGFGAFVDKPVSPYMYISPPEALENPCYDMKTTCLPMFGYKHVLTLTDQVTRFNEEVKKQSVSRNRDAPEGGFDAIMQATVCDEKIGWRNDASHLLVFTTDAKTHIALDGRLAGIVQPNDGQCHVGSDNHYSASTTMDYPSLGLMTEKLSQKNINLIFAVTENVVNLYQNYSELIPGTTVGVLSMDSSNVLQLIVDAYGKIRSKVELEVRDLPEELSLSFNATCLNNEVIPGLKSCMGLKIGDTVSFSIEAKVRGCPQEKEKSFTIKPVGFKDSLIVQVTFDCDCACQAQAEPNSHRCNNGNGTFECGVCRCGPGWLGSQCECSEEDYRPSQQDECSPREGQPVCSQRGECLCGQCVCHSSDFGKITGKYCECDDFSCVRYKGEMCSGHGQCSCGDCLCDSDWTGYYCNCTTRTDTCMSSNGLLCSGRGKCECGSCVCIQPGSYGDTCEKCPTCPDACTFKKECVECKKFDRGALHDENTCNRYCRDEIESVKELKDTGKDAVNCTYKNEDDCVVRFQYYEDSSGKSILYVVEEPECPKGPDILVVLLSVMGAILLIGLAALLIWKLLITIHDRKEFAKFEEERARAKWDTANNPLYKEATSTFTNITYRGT
UniProt P18084, residues 24-799: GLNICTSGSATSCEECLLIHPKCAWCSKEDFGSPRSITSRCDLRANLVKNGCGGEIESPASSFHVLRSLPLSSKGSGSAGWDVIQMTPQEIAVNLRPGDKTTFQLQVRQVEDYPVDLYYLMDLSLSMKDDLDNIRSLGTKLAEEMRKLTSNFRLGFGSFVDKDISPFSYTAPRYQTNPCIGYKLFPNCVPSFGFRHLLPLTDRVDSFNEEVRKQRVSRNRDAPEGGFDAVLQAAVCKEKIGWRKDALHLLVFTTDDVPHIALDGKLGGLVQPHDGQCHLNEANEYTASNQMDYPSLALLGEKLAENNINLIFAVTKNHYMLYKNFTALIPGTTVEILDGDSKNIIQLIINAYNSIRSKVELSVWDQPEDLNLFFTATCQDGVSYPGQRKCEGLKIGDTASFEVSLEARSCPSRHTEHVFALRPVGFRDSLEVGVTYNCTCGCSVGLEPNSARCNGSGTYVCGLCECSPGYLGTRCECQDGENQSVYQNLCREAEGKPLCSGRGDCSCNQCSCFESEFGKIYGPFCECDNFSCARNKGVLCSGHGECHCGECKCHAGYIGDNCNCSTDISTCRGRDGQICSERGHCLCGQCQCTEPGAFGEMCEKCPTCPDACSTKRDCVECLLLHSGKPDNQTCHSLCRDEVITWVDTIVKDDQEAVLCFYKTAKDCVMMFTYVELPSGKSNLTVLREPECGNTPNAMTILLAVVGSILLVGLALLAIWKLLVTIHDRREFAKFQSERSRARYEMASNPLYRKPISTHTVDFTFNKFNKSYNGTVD

What was measured:
Test in all cases: chemical cross-linking of the biotinylated peptide on chilled cells, capture on Ni-NTA plates, detection with an antibody to the marker
[1] = molecular target: integrin alpha 2 (UniProt P17301)
[2] = molecular target: integrin alpha 5 (UniProt P08648)
[3] = molecular target: T1, integrin alpha 6 (UniProt P23229)
T1 sequence (looked up): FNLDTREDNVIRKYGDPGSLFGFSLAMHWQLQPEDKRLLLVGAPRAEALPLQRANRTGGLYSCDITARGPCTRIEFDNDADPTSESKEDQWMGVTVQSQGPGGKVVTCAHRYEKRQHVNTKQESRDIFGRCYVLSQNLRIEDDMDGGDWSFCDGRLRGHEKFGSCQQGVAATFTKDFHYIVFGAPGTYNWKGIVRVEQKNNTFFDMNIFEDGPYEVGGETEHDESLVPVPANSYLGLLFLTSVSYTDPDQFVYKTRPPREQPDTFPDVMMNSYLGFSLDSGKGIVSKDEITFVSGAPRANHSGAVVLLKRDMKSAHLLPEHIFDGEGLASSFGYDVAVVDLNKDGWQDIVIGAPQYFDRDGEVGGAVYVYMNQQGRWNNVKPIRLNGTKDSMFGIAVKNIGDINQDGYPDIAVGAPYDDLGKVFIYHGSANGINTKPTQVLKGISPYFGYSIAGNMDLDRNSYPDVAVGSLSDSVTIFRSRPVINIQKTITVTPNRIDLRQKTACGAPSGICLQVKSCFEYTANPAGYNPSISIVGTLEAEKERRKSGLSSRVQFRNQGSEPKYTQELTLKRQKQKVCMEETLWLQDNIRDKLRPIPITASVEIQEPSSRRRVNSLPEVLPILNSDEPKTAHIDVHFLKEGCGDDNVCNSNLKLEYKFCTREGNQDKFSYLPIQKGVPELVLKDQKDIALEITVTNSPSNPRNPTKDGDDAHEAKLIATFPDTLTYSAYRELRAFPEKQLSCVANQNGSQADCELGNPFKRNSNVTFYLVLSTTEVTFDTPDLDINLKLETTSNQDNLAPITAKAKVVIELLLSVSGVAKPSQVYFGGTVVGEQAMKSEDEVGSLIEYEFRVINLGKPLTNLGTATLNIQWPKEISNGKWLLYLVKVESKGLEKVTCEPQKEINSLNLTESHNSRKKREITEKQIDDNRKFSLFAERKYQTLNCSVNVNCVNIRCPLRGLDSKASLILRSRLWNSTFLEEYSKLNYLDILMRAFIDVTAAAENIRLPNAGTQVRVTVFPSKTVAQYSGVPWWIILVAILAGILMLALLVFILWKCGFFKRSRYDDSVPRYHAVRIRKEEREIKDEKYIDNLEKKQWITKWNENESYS

[4] = molecular target: integrin alpha v (UniProt P06756)
[5] = molecular target: integrin beta 1 (UniProt P05556)
[6] = molecular target: integrin beta 3 (UniProt P05106)
[7] = molecular target: integrin beta 5 (UniProt P18084)

Measured: binding

KKGFYKKKQCRPSKGRKRGFCWAVDKYG (biotinylated (position not stated at this place)) [MBD21 peptide (biotinylated)]
binds: all assays above
